Assay results published in article PMC9885066.
No constants are given. Whether binding was seen depends on the method and setting. In cells and extracts the contact can be indirect. Some binding calls cover weakened binding; strength is not graded here.

The chains behind the UniProt entries cited, without tags or fusion partners.
UniProt P60953: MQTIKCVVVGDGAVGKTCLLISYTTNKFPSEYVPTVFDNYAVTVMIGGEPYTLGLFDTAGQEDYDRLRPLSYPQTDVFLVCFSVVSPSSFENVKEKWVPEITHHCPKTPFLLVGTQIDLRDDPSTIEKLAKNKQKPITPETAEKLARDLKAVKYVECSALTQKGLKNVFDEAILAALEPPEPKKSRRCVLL
UniProt P08670: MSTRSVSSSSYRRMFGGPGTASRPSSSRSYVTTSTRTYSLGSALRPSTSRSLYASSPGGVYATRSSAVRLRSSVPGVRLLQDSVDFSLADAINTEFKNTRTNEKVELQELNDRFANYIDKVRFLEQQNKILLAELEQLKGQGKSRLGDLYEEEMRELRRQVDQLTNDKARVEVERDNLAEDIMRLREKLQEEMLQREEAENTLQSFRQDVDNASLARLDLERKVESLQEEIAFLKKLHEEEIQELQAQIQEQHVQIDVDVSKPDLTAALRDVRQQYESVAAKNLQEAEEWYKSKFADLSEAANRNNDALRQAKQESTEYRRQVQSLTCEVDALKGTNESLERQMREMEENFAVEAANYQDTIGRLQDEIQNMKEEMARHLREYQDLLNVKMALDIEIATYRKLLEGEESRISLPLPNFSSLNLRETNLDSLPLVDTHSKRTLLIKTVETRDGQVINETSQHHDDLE

Tests used:
[1] = molecular target: SopB-N-GFP (pCS2-EGFP-N1-SopB, 29-168 amino acid) (Salmonella) (UniProt O30916); experiment: co-IP; lysates of cells 16 h after transfection with SopB-GFP constructs; anti-GFP beads, 1 h, 4 °C; 50 mM Tris-HCl pH 8.0, 150 mM NaCl, 0.5% NP40, 1 mM EDTA; Western blotting for vimentin and Cdc42
[2] = molecular target: SopB-ΔN-GFP (pCS2-EGFP-N1-SopB, 168-561 amino acid) (Salmonella) (UniProt O30916); experiment: as above

Which binding [1] does the source give for “Cdc42 GTPase (from UniProt P60953 1-191)” here?
Its binding is “binds”.

And the binding [2]?
The binding was “no binding”.

What does the source list for vimentin (from UniProt P08670 1-466)?
binding [1]: binds; binding [2]: no binding
